No constants are given. Whether binding was seen depends on the method and setting. Some results given as binding are weak or reduced against the parent protein; the word gives no strength.
Key:
Experiment in all cases: cryo-EM structure; native LH1–RC purified in DDM, ~3.8 mg/ml, 2.62 Å resolution; both purified
[1] = target: LH1 β-polypeptide (Rhodobacter capsulatus (endogenous in strain NBRC16435)) (UniProt P02950)
[2] = target: LH1 α-polypeptide (Rhodobacter capsulatus (endogenous in strain NBRC16435)) (UniProt P02948)
[3] = target: RC-L subunit (Rhodobacter capsulatus (endogenous in strain NBRC16435)) (UniProt P19057)

Amino acid sequences for entries named in this document (tags omitted).
UniProt P02950: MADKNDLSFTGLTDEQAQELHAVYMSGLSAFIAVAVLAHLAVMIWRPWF
UniProt P02948: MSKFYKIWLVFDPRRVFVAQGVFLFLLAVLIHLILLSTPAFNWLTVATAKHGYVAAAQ
UniProt P19057: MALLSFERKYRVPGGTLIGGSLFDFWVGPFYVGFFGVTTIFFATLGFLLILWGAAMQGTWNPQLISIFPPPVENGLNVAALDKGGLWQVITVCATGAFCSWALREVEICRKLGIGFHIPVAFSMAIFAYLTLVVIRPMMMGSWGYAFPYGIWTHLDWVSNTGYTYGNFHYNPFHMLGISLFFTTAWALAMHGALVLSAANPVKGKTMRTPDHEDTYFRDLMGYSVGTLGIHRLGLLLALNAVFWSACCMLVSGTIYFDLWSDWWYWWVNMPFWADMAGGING

Measured: binding

B1: PufX (protein, UniProt P26240 1-78)
chain: MSMFDKPFDYENGSKFEMGIWIGRQMAYGAFLGSIPFLLGLGLVLGSYGLGLMLPERAHQAPSPYTTEVVVQHATEVV
binds: all assays above
